The list shows a part of the results.
How the values were obtained:
Test in all cases: glycan array binding signal (z-score within array); higher = stronger binding
Conditions in all cases: glycan notation: IUPAC condensed, linker removed
[1] = biological target: Gal(b1-3)[Neu5Ac(a2-6)]GlcNAc(b1-6)Gal(b1-4)Glc
Procedure, shortened: (§1)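 Glycan array data came from 3228 arrays in the Consortium for Functional Glycomics database, and only arrays with an available protein sequence were kept. Glycan names were put into IUPAC-condensed notation, and columns mapping to the same glycan were averaged. The binding signal is a within-array Z-score, averaged across arrays of one protein sequence run at different concentrations or buffers and across linkers. A negative Z-score can be read as non-binding.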

[2] = biological target: Gal(b1-3)[Neu5Ac(b2-6)]GalNAc
Procedure, shortened: as §1

[3] = biological target: Gal(b1-4)GalNAc(a1-3)[Fuc(a1-2)]Gal(b1-4)GlcNAc
Procedure, shortened: as §1

[4] = biological target: Gal(b1-4)GalNAc(b1-3)[Fuc(a1-2)]Gal(b1-4)GlcNAc
Procedure, shortened: as §1

Gal(b1-4)Glc = biological target: Gal(b1-4)Glc
Procedure, shortened: as §1

Gal(b1-4)Glc6S = biological target: Gal(b1-4)Glc6S
Procedure, shortened: as §1

Gal(b1-4)GlcNAc = biological target: Gal(b1-4)GlcNAc
Procedure, shortened: as §1

[5] = biological target: Gal(b1-4)GlcNAc(a1-6)Gal(b1-4)GlcNAc
Procedure, shortened: as §1

[6] = biological target: Gal(b1-4)GlcNAc(b1-2)Man(a1-3)Man(b1-4)GlcNAc(b1-4)GlcNAc
Procedure, shortened: as §1

[7] = biological target: Gal(b1-4)GlcNAc(b1-2)Man(a1-3)[Gal(b1-4)GlcNAc(b1-2)Man(a1-6)]Man(b1-4)GlcNAc(b1-4)GlcNAc
Procedure, shortened: as §1

[8] = biological target: Gal(b1-4)GlcNAc(b1-2)Man(a1-3)[Gal(b1-4)GlcNAc(b1-2)Man(a1-6)]Man(b1-4)GlcNAc(b1-4)[Fuc(a1-6)]GlcNAc
Procedure, shortened: as §1

[9] = biological target: Gal(b1-4)GlcNAc(b1-2)Man(a1-3)[Man(a1-6)]Man(b1-4)GlcNAc(b1-4)GlcNAc
Procedure, shortened: as §1

[10] = biological target: Gal(b1-4)GlcNAc(b1-2)Man(a1-6)Man(b1-4)GlcNAc(b1-4)GlcNAc
Procedure, shortened: as §1

[11] = biological target: Gal(b1-4)GlcNAc(b1-2)Man(a1-6)[Man(a1-3)]Man(b1-4)GlcNAc(b1-4)GlcNAc
Procedure, shortened: as §1

[12] = biological target: Gal(b1-4)GlcNAc(b1-2)[Gal(b1-4)GlcNAc(b1-4)]Man(a1-3)[Gal(b1-4)GlcNAc(b1-2)Man(a1-6)]Man(b1-4)GlcNAc(b1-4)GlcNAc
Procedure, shortened: as §1

[13] = biological target: Gal(b1-4)GlcNAc(b1-3)Gal(b1-3)GlcNAc
Procedure, shortened: as §1

[14] = biological target: Gal(b1-4)GlcNAc(b1-3)Gal(b1-4)Glc
Procedure, shortened: as §1

[15] = biological target: Gal(b1-4)GlcNAc(b1-3)Gal(b1-4)GlcNAc
Procedure, shortened: as §1

[16] = biological target: Gal(b1-4)GlcNAc(b1-3)Gal(b1-4)GlcNAc(b1-3)Gal(b1-4)GlcNAc
Procedure, shortened: as §1

[17] = biological target: Gal(b1-4)GlcNAc(b1-3)Gal(b1-4)[Fuc(a1-3)]GlcNAc(b1-3)Gal(b1-4)[Fuc(a1-3)]GlcNAc
Procedure, shortened: as §1

[18] = biological target: Gal(b1-4)GlcNAc(b1-3)GalNAc
Procedure, shortened: as §1

[19] = biological target: Gal(b1-4)GlcNAc(b1-3)[Gal(b1-4)GlcNAc(b1-6)]Gal(b1-4)GlcNAc
Procedure, shortened: as §1

[20] = biological target: Gal(b1-4)GlcNAc(b1-3)[GlcNAc(b1-6)]Gal(b1-4)GlcNAc
Procedure, shortened: as §1

[21] = biological target: Gal(b1-4)GlcNAc(b1-6)Gal(b1-4)GlcNAc
Procedure, shortened: as §1

[22] = biological target: Gal(b1-4)GlcNAc(b1-6)Gal(b1-4)GlcNAc(b1-6)GalNAc
Procedure, shortened: as §1

[23] = biological target: Gal(b1-4)GlcNAc(b1-6)GalNAc
Procedure, shortened: as §1

[24] = biological target: Gal(b1-4)GlcNAc(b1-6)[Gal(b1-3)]GalNAc
Procedure, shortened: as §1

Gal3S(b1-3)GalNAc = biological target: Gal3S(b1-3)GalNAc
Procedure, shortened: as §1

Gal3S(b1-3)GlcNAc = biological target: Gal3S(b1-3)GlcNAc
Procedure, shortened: as §1

[25] = biological target: Gal3S(b1-3)[Fuc(a1-4)]GlcNAc
Procedure, shortened: as §1

Gal3S(b1-4)Glc = biological target: Gal3S(b1-4)Glc
Procedure, shortened: as §1

Gal3S(b1-4)Glc6S = biological target: Gal3S(b1-4)Glc6S
Procedure, shortened: as §1

Gal3S(b1-4)GlcNAc = biological target: Gal3S(b1-4)GlcNAc
Procedure, shortened: as §1

Gal3S(b1-4)GlcNAc6S = biological target: Gal3S(b1-4)GlcNAc6S
Procedure, shortened: as §1

[26] = biological target: Gal3S(b1-4)[Fuc(a1-3)]Glc
Procedure, shortened: as §1

Gal3S4S(b1-4)GlcNAc = biological target: Gal3S4S(b1-4)GlcNAc
Procedure, shortened: as §1

Gal3S6S(b1-4)GlcNAc = biological target: Gal3S6S(b1-4)GlcNAc
Procedure, shortened: as §1

Gal3S6S(b1-4)GlcNAc6S = biological target: Gal3S6S(b1-4)GlcNAc6S
Procedure, shortened: as §1

B1: Adiponectin (Rattus norvegicus), Q8K3R4 (protein)
chain: MLLLQALLFLLILPSHEGITATEGPGALVPPPKETCAGWMAGIPGYPGHNGIPGRDGRDGTPGEKGEKGDAGVLGPKGDPGDAGMTGAEGPRGFPGTPGRKGEPGEAAYMYHSAFSVGLETRVTVPNVPIRFTKIFYNQQNHYDGSTGKFHCNIPGLYYFSYHITVYMKDVKVSLFKKDKAVLFTYDQYQEKNVDQASGSMLLHLEVGDQVWLQVYGEGDNNGLYADNVNDSTFTGFLLYHDTN
For B1, the “glycan array binding signal (z-score)” value [1] was 0.072, the “glycan array binding signal (z-score)” value [2] was -0.559 and the “glycan array binding signal (z-score)” value [3] was -0.398. For the same binder, the “glycan array binding signal (z-score)” value [4] was 0.506, the “glycan array binding signal (z-score)” value (Gal(b1-4)Glc) was 0.419 and the “glycan array binding signal (z-score)” value (Gal(b1-4)Glc6S) was -0.949. The “glycan array binding signal (z-score)” value (Gal(b1-4)GlcNAc) was -0.468, the “glycan array binding signal (z-score)” value [5] was -0.335 and the “glycan array binding signal (z-score)” value [6] was -0.863. The “glycan array binding signal (z-score)” value [7] was 1.59, the “glycan array binding signal (z-score)” value [8] was -0.816 and the “glycan array binding signal (z-score)” value [9] was 1.31. The “glycan array binding signal (z-score)” value [10] was 0.715, the “glycan array binding signal (z-score)” value [11] was -1.04 and the “glycan array binding signal (z-score)” value [12] was -0.006. For the same binder, the “glycan array binding signal (z-score)” value [13] was 1.59, the “glycan array binding signal (z-score)” value [14] was -0.428 and the “glycan array binding signal (z-score)” value [15] was -0.229. For the same binder, the “glycan array binding signal (z-score)” value [16] was 3.09, the “glycan array binding signal (z-score)” value [17] was -0.654 and the “glycan array binding signal (z-score)” value [18] was 1.07. The “glycan array binding signal (z-score)” value [19] was 0.332, the “glycan array binding signal (z-score)” value [20] was -0.308 and the “glycan array binding signal (z-score)” value [21] was -0.757. For the same binder, the “glycan array binding signal (z-score)” value [22] was -0.241, the “glycan array binding signal (z-score)” value [23] was -0.792 and the “glycan array binding signal (z-score)” value [24] was -0.861. The “glycan array binding signal (z-score)” value (Gal3S(b1-3)GalNAc) was 0.621, the “glycan array binding signal (z-score)” value (Gal3S(b1-3)GlcNAc) was -0.814 and the “glycan array binding signal (z-score)” value [25] was 1.13. For the same binder, the “glycan array binding signal (z-score)” value (Gal3S(b1-4)Glc) was -0.489, the “glycan array binding signal (z-score)” value (Gal3S(b1-4)Glc6S) was 2.51 and the “glycan array binding signal (z-score)” value (Gal3S(b1-4)GlcNAc) was -0.78. For the same binder, the “glycan array binding signal (z-score)” value (Gal3S(b1-4)GlcNAc6S) was -0.821, the “glycan array binding signal (z-score)” value [26] was -1.08 and the “glycan array binding signal (z-score)” value (Gal3S4S(b1-4)GlcNAc) was 0.706. The “glycan array binding signal (z-score)” value (Gal3S6S(b1-4)GlcNAc) was -0.657 and the “glycan array binding signal (z-score)” value (Gal3S6S(b1-4)GlcNAc6S) was -0.626.
